According to PubChem BioAssay AID1508600 (Functional Genomics Laboratory (NCATS/FGL), 2020):
In all, about 53,000 sequences went through this assay and about 3,700 (7%) were called active.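 The calls were made as follows: active = gene knockdowns whose robust z-score for IL-1 alpha signal is at least 2 or at most -2, so actives lie on both sides; inactive = the rest.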 The list shows a part of the results.

Experiment: Components of the Cytosolic LPS Sensing Pathway: Gene Identification via Genome-wide siRNA Screen;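 also: robust z of the log signal after scaling to non-targeting control siRNA wells of the plate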
Conditions: RAW264.7 macrophages, IL-1a HTRF, actives lie on both sides, screened at 100 nM (by protocol), cells primed 5 h with Pam3CSK4 first
How it was run: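 RAW264.7; siRNA 100 nM final, RNAiMAX, 48h 37 degrees C; Pam3CSK4 5 h; LipidA + TransIT-TKO 24 h; IL-1a HTRF; CellTiter-Glo viability; robust z vs negative-control median.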

Sequence | z-score
GCUUUGUGGAGUUCAACCUTT against Kcnh6 | inactive: 0.234
GGACCUAAUCCAUAAGGUCTT against Pcyox1l | inactive: -0.379
GGACUAAAAGAUUGGUGGUTT against Polr2k | inactive: -1.41
GGAAAACCAGAAAGAAUUUTT against Crnkl1 | inactive: -0.334
CCUUCUUUAAACCUCCAUGTT against Vegfc | inactive: 0.347
GCGAUCCUGACUUGUUCAATT against Kdm6b | active: 2.27
GGGAACCGCUUAUAUGUCCTT against Tbx21 | inactive: -0.195
GCCUUAGGCAUUUAGAUUUTT against Zbed4 | inactive: 1.33
GGUGCAUGCACUGAAGAAGTT against Mpv17 | inactive: 1.39
GGUCCUCCCAUAAUCUAGUTT against Lrrc75a | inactive: 1.18
GGAAGGGACUGAUCGGUACTT against Igsf8 | inactive: 1.61
GGGUAUCCAGUAUUUGAUCTT against Iqsec2 | inactive: -0.544
CGAAUGAAAGAAUACCGUGTT against Dnajc6 | inactive: 0.0901
GGUUUUUUUCUUCACAGGUTT against Olfr127 | inactive: 0.309
GGAAAAACUCCCUCGGUACTT against Rps11 | inactive: 0.683
GAAAGUGUUCAGGAAGCUGTT against Klra19 | inactive: -0.241
GGUGAAAAAGGUUAGAAAATT against Wasf3 | inactive: -0.164
GGUAGCAGACAGCUACCCUTT against Tnfsf15 | inactive: 0.405
GGGCAUUUCUUUGUCUAUCTT against Nme1 | inactive: 1.09
GGCAGCAUGGAGAACGAGATT against Camk1 | inactive: -1.03
GCAAUCGACCGCAUCCUAATT against Gm4827 | inactive: -1.32
CGAGCACUAUUUUGGAUUATT against Usp12 | inactive: 0.0102
GGUCAGUGAAGUUUAACAATT against Fam219b | inactive: -0.0232

Single entries from the list.
Entry of GGUCAGUGAAGUUUAACAATT against Fam219b under z-score: inactive: -0.0232
Entry of GGGCAUUUCUUUGUCUAUCTT against Nme1 under z-score: inactive: 1.09
Entry of GGCAGCAUGGAGAACGAGATT against Camk1 under z-score: inactive: -1.03
Entry of GGAAGGGACUGAUCGGUACTT against Igsf8 under z-score: inactive: 1.61

More entries follow:

Sequence | z-score
GGUAAAGUGGGAUGUGGAATT against Mysm1 | inactive: -1.03
CCUGUGCAUACGUUUGGCATT against Olfr1335 | inactive: -0.754
GGACUUGUUCUACAAGUACTT against Srsf9 | inactive: 0.682
GGUCUUCAAUAAACUCAUCTT against Bzw2 | inactive: -0.769
GGAGCUGAACAUGUUAACUTT against Shq1 | inactive: -0.274
GCACAAACCUGUGGCAUUUTT against Cacnb3 | inactive: -0.234
GGUUAGCAGGGACCUAAUGTT against Zfp94 | active: 2.57
GGCCGUUAUGUUUUACAAGTT against Dnajc19 | inactive: 0.00748
CCCUGUAUCAUGCACGUAATT against Kcnj4 | inactive: 0.678
GGUUUGUUUUCAGAUGAAGTT against Washc2 | inactive: 0.155
GCUCCCACACUUCAUCCCUTT against Sh3d21 | inactive: 1.19
CCCAUUUAAAUACGGGAUUTT against Txlng | inactive: 0.832
CGACUAGGCAUCUAUGAAGTT against Kremen2 | inactive: -1.19
GCCCUUAGAAGUCAUUGAGTT against Lypd1 | inactive: -0.257
GGUUUAUCCUACAGCGAAGTT against Prl8a1 | inactive: 1.12
GGUCCCUGGAAACCAUCAGTT against Ssxb2 | inactive: -1.54
GGCUCAAUUUGGAAAGGACTT against Anxa8 | inactive: -0.586
GGCCAAUCAGCCAUCCUAUTT against Lilrb4a | inactive: 0.0446
GAUCAUCGGCAUUUUGAACTT against Il4 | inactive: -0.527
GCAAUGGACUGACAUGUCATT against Csdc2 | inactive: -0.339
GGCUGACUAUGCUGCCACATT against Npdc1 | inactive: 0.457
GGAAGCACAAGUGCCACUATT against Klf13 | inactive: -0.591
GGUACCUGAAUGACUUAUATT against Hcfc1 | inactive: -0.207

Sequence | z-score
GGAGAAGUUACUGAUGAGATT against Ghdc | inactive: -0.713
GGUAGCUAUUAAAGAAUCCTT against AW209491 | inactive: 1.12
GGGACUUGGUUCAAACGACTT against Tbx3 | inactive: -0.00336
GGACCAAGCCAUCUGAGUUTT against Tmem114 | inactive: 1.26
GGGUGGAGACUUGGAAAUGTT against Spag11a | inactive: -0.69
CCAGUAAUUAGCAUGUACGTT against Olfr1370 | inactive: 0.441
GGACAGGUGUCGAUCAAACTT against Zfp280c | inactive: 0.0987
GGCAACCAAAACGAUACAATT against Entpd7 | inactive: 0.637
GGAGAAACGCAUCAACCCUTT against Pou2f2 | inactive: -0.621
CCUAAAAGACUUCAUCCGUTT against Kcnh8 | active: 2.32
GCCAGUGACUGUCCUUACATT against Dag1 | inactive: 0.411
CCUUAUAGAGAGAGCCCUGTT against Tcf25 | inactive: -1.23
GGCUAAUACCAAACCUAUATT against Spata20 | inactive: -0.251
GCUUCAGCGUGAAAAAGCCTT against Gorab | inactive: 0.0143
GGAAGAUAAGCUAAAUAUCTT against Clca3b | inactive: 0.123
GCCCACAUUUGUAUUACUUTT against Rabepk | inactive: -1.08
GGUUGGUAGGAUGGACAAGTT against Rab11b | active: 2.45
GGUCUUGAGGUCAUUCUCCTT against Il24 | inactive: 0.396
GGGAUAAGGGAAGUUAGGUTT against Glt28d2 | inactive: -0.457
GCCAAAUUAAGUAUCUUGATT against Lamp2 | inactive: 0.371
GGCAUUGCUUCAUGGCUCUTT against Tmprss5 | inactive: -0.166
CCUUCAGUGGUUUGAACCGTT against Dnd1 | active: 2.59
